Holding throughout (experiment): DAPPL (digital affinity profiling via proximity ligation, sequencing)
Common to all, as to settings: 10 mM Tris-HCl pH 7.5, 50 mM NaCl, 1 mM DTT, 4% glycerol, room temperature, 30 min; GST-TFs on glutathione beads, 16-mer random dsDNA library, 0.1% …; high values mean tight binding; double strand, one strand shown; scale: fold enrichment (6-mer frequency, TF over GST control)

Chains of the proteins cited; added tags and fusions are not shown. Lines headed by an entry give the natural chain unless they say otherwise; changes in a name come on top.
UniProt P41161: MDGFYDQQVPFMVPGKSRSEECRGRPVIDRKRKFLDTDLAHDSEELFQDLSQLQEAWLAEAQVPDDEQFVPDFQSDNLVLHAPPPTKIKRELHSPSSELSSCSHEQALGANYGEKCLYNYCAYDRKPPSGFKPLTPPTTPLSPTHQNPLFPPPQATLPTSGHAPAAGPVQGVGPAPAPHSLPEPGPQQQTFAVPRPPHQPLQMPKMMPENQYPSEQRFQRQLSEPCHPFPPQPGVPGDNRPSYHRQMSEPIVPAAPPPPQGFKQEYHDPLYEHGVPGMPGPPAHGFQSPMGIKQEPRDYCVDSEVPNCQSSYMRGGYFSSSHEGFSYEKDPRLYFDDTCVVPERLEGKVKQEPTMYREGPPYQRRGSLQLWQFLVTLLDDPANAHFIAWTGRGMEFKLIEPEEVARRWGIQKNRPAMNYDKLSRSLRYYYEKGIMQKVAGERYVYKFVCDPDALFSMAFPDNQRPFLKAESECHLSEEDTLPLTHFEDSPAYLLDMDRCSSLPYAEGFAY
UniProt Q99607: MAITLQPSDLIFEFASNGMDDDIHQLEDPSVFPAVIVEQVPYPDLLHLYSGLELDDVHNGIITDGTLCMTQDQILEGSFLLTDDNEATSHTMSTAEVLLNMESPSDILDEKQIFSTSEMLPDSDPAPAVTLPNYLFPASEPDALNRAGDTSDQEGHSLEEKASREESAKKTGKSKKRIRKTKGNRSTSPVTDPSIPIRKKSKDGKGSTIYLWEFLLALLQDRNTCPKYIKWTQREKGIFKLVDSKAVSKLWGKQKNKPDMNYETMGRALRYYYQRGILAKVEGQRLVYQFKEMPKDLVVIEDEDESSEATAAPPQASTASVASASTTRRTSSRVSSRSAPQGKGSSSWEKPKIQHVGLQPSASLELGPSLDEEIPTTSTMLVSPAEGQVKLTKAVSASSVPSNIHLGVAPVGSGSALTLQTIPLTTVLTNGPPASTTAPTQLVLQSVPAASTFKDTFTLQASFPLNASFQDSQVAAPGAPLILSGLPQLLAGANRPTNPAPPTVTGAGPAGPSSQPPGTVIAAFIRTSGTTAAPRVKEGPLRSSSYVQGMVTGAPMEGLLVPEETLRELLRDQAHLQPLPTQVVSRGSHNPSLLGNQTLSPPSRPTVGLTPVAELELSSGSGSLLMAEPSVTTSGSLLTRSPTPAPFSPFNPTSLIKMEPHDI
UniProt Q01892: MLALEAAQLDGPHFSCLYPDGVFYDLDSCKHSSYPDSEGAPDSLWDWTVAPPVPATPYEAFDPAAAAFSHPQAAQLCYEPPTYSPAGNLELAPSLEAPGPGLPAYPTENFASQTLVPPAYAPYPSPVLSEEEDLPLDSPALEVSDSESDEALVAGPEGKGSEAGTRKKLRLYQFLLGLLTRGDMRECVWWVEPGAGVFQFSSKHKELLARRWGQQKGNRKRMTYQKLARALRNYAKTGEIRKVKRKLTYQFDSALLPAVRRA

The target in experiment [1] is ETV5 (UniProt P41161).
Experiment [2] addresses ELF4 (UniProt Q99607).
Experiment [3] deals with T1, ETV2 (UniProt O00321).
T1 sequence: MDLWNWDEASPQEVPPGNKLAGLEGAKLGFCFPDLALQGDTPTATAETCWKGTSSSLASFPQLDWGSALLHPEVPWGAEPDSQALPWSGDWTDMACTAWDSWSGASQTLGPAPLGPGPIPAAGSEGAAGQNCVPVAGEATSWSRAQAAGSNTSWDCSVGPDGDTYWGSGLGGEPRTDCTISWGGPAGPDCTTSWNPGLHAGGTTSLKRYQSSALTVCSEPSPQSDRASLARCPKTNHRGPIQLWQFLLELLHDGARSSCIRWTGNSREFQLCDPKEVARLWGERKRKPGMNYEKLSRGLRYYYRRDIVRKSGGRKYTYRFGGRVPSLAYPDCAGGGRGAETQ

The target of experiment [4] is T2, ETV3L (UniProt Q6ZN32).
T2 sequence: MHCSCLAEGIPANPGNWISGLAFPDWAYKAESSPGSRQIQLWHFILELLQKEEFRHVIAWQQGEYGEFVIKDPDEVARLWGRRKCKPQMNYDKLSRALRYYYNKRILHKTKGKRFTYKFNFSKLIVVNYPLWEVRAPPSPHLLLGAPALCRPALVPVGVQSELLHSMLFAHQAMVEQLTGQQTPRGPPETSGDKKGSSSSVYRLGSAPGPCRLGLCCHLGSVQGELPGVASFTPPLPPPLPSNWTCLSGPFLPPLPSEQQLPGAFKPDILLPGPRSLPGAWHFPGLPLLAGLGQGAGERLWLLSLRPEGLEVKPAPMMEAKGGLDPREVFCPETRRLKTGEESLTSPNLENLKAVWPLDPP

Experiment [5] deals with T3, EHF (UniProt Q9NZC4).
T3 sequence: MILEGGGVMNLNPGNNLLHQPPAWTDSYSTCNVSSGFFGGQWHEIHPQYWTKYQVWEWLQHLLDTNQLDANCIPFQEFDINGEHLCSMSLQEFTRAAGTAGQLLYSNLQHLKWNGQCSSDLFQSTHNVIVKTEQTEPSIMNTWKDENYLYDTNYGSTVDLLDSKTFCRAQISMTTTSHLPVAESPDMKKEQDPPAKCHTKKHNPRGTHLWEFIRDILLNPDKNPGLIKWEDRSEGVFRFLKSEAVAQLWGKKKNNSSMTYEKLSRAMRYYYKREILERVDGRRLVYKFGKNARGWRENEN

In experiment [6] the target is SPIB (UniProt Q01892).

Only a part is listed here, and it is no random draw. At the low end of the ranking, values are background and their order means little.

With TTCTAG, the binding signal in experiment [1] was determined as 1.11; in experiment [2] it was 1.22; in experiment [3] it was 1.18; in experiment [4], 1.3.
Consider CACGAC, for which the values for the binding signal in experiment [1] and in experiment [2] were 1.28 and 1.35, respectively.
Turning to ACGTCA, the binding signal is 0.948 in experiment [1], 0.947 in experiment [2], 0.897 in experiment [3] and 0.893 in experiment [4].
With TGTGAT, the binding signal in experiment [1] amounted to 0.938; in experiment [2], 1.05; in experiment [3] it was 0.953.
CGCTGG: the binding signal in experiment [1] came to 1; in experiment [2], 1.02.
The corresponding values for CCGAGC are 1.14 and 1.09.
With TACGCA, the binding signal worked out at 1.21 in experiment [1], 1.23 in experiment [2], 1.15 in experiment [3] and 1.12 in experiment [4].
The corresponding values for AGTGGT are 1.14, 0.993, 0.848 and 1.06.
Regarding TGAATC, the binding signal in experiment [1] was found to be 0.998; in experiment [2], 0.965; in experiment [3] it was 0.899; in experiment [4], 0.915.
ACGGCA: the binding signal in experiment [1] was determined as 1.13; in experiment [2], 1.06; in experiment [3], 0.954.
On to CTCGGG, for which the binding signal in experiment [5] came out at 0.986; in experiment [1], 0.967; in experiment [2], 0.995; in experiment [3], 0.967; in experiment [4], 1.09.
For CCCGCG, the binding signal in experiment [5] was determined as 0.897; in experiment [1], 0.937; in experiment [2], 0.964; in experiment [3] it was 0.834; in experiment [4], 0.956.
Turning to GTGGCA, the binding signal in experiment [5] was 1.03; in experiment [6] it was 0.992; in experiment [1], 0.996; in experiment [2], 0.916; in experiment [3], 1.07; in experiment [4] it was 0.964.
As to ACAACT, the binding signal in experiment [1] was 1.32; in experiment [2], 1.36; in experiment [3], 1.29; in experiment [4] it was 1.36.
Turning to TATATG, the binding signal was 1.34 in experiment [1] and 1.31 in experiment [2].
In the case of AATCTT, the binding signal stood at 1.35 in experiment [1] and 1.31 in experiment [2].
Turning to AATTTT, the binding signal worked out at 1.29 in experiment [1], 1.32 in experiment [2] and 1.46 in experiment [3].
In the case of TGCGCA, the binding signal turned out to be 1.16 in experiment [5]; 1.12 in experiment [1]; 1.09 in experiment [2]; 0.988 in experiment [3]; 1.11 in experiment [4].
Turning to ATGTAG, the binding signal in experiment [1] stood at 1.08; in experiment [2], 1.1; in experiment [3] it was 1.03; in experiment [4], 0.979.
Consider CTAGGC, for which the binding signal in experiment [1] came out at 1.06; in experiment [2] it was 1.16; in experiment [3], 1.21.
Consider CTGCGC, for which the binding signal was 1.34 in experiment [1], 1.32 in experiment [2] and 1.46 in experiment [3].
The corresponding values for CCCCCT are 1.29, 1.35 and 1.17.
As for TTTAAG, the binding signal in experiment [1] was 1.34; in experiment [2] it was 1.29.
The matching figures for TGGAAT: 1.22 and 1.14.
For ATCAAC, the binding signal in experiment [1] was determined as 1.04; in experiment [2] it was 1.09; in experiment [3], 1.18; in experiment [4] it was 1.23.
Regarding TAAGTC, the binding signal was 0.835 in experiment [5]; 0.891 in experiment [6]; 0.938 in experiment [1]; 0.858 in experiment [2]; 0.909 in experiment [3]; 0.883 in experiment [4].
CCCGGT: the figures for the binding signal in experiment [1], in experiment [2] and in experiment [3] were 1.09, 0.963 and 0.989, respectively.

Values taken from PMC7862700.
